Assay results from PMC11700651.

Sequences of proteins named here, by UniProt entry; tags and fusion partners are left off.
UniProt Q86U44: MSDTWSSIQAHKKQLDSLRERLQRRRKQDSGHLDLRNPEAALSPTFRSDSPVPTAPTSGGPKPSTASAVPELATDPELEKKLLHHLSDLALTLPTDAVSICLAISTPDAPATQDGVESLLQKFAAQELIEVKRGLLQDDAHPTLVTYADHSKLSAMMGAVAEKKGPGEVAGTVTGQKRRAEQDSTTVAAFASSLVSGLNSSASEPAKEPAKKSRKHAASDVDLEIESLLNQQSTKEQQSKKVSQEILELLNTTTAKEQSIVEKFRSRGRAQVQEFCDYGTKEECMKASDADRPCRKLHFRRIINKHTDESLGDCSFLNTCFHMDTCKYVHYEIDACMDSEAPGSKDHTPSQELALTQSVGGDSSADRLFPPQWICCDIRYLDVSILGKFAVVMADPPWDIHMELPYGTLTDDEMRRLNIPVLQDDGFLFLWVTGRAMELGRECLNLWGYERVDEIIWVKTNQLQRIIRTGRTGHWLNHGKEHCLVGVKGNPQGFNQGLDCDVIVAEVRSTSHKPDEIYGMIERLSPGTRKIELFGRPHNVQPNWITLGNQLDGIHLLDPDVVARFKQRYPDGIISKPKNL
UniProt O43823: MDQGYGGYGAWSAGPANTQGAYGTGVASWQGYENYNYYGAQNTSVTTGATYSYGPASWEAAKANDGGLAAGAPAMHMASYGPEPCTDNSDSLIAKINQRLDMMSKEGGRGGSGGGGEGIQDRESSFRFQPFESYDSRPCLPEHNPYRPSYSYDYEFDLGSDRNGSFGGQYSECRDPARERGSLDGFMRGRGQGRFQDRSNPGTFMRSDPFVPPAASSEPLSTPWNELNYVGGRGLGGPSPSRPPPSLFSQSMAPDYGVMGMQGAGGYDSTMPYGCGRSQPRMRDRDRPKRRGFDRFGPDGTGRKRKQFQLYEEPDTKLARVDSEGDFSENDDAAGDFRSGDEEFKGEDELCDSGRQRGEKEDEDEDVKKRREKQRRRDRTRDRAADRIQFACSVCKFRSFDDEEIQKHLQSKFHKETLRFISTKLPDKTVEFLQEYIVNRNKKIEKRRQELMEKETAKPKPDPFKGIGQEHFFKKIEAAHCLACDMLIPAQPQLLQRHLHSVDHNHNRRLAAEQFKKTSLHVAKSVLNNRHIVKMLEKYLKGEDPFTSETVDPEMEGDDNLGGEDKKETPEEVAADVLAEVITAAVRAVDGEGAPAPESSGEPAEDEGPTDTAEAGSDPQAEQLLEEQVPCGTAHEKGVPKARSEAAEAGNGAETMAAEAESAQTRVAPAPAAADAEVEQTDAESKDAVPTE

Target: Flag-METTL3 (methyltransferase-like 3) (human) (UniProt Q86U44)
Experiment: affinity purification with mass spectrometry; pFlag-METTL3-transfected RD cells infected with EV71; IP with anti-Flag antibody; MS analysis

## AKAP8, endogenous (from UniProt O43823 1-692)
  binding: binds

Results are given in words; binding and its absence hold for the method and conditions named. Binding seen in cells or lysates may run through a third protein. A yes stands for co-enrichment or nearness to the bait. Other partners may have been found.
